Results on 18 molecules are retold here after article PMC10163288.

Some of the results follow.

First the molecules themselves.
B1: il2ra_site2_3nfp_normal_mot_HHH_b1_01086_000000225_0001_20_36_H_._HHH_b1_01202_0001_0000300006_0000001_0_af2pred_0001_af2pred_swapped (protein)
chain: SSSSDHERFALRAALLEIEVAIEAGDEKKVEKLIERLEILIKRLNDEEMEELLRKLKEELSSSSS
B2: il2ra_site1_1z92_normal_mot_0a69b5c9b02373fb877a90f2b4b0d8e1_0001_1_af2_000000257_0001_17_32_H_._5511cb2176c827d1feb3066af2f534d5_0001_af2_0001_0000200009_00000 … (protein)
chain: PEELAEEARRLLENGNPEEAEKVLEKLAKESGSEEAFKRDLELAERWLGDPRRALLALIVALARD
B3: il2ra_site2_3nfp_sap_23_mot_HHH_b1_02422_000000114_0001_42_59_H_._d2b7c2924102c02e5b5e195002b33380_0001_1_0001_0000400028_0000001_0_0001 (protein)
chain: SSSSDEEERLEELIKELERLREEGDRVEAAEVLMELSELALEVGDREAVRVVLRYFRELQSSSSS
B4: il2ra_site2_2erj_normal_mot_HHH_b1_03609_af2_000000077_0001_42_55_H_._HHH_b1_06737_af2_0001_0000700011_0000001_0 (protein)
chain: SSSSSDEEKEEIEELIEEAKKIEDPEEAIEVLRRAAELAFELNDFELFSEIAELLRELAGSSSSS
B5: il2ra_site2_3nfp_normal_mot_HHH_b1_05627_af2_000000038_0001_43_56_H_._HHH_b2_07185_af2_0001_0000600046_0000001_1 (protein)
chain: SSSSSKAEEYLRIALELAKEAIEAGDPEAAKEILEAARLAAESLRDPEIQKEVEELLEELRSSSS
B6: il2ra_site2_3nfp_sap_23_mot_HHH_b2_05513_000000198_0001_20_37_H_._52c50354b804bec8c3157ba16786ada3_0001_0001_0000300006_0000001_0_0001 (protein)
chain: DAAEESIHAIRRKDEELSELLEEVLRLIKELKDPRLHLLLYEALLLIYRGNPEEAKKVLEEAAER
B7: il2ra_site1_2b5i_normal_mot_HHH_b1_04974_000000136_0001_1_18_H_._HHH_b1_00972_af2_0001_0000700037_0000001_0_af2pred_dldesign_0_af2pred (protein)
chain: SSSSSEVEDEADRLAREAARLRKEGKREEARKLLEKALELAKKANDEKLVAEIELLLSKLKSSSS
B8: il2ra_site2_2erj_sap_17_mot_cf89365494dbba80ae51c8475d1ce666_0001_af2_000000081_0001_35_48_H_._HHH_b2_08186_0001_0000400039_0000001_0_0001 (protein)
chain: SSSSSSSLLEEALEEIERLLEEGNSEEALRLAYKVAAELLSKDLELAREFFELAQELASSSSSSS
B9: il2ra_site2_2erj_normal_mot_HHH_b2_06080_000000063_0001_42_56_H_._HHH_b2_01714_0001_0001500014_0000001_0_af2pred_0001_1_af2pred_swapped (protein)
chain: SSSSDLEEVLRRLIEALSEGDEELIEELFELVEELAKKVPDRELRSEAERLLAFARSLLKKSSSS
B10: il2ra_site1_3nfp_sap_19_mot_119b7766384adbe86006a62bce89dba1_0001_af2_000000092_0001_18_32_H_._3633a07a64a68e62d76074d72b379c70_0001_1_af2_0001_0000100004_00000 … (protein)
chain: SSSSSAFEFLEREAKKAFERGDRRLLRLLLELIEKLLERMGNPKAEEVLEYIEELLRRLESSSSS
B11: il2ra_site1_2b5i_normal_mot_HHH_b1_01949_af2_000000041_0001_1_19_H_._HHH_b1_05336_af2_0001_0000200009_0000001_0_af2pred_0001_af2pred (protein)
chain: SSSSDEEERVFELFREASELFRNGNPEEARKVLEEALELARETGDPVAAKDLELFLELANSSSSS
B12: il2ra_site1_3nfp_normal_mot_HHH_b1_05523_000000027_0001_1_19_H_._HHH_b1_07881_af2_0001_0000800028_0000001_0_af2pred_0001_af2pred_1 (protein)
chain: SSSSSEELERVKELLEEALRLFKNGNPEEAKEVLEEALHLARENGSEHLRRFIEVALKLASSSSS
B13: il2ra_site2_3nfp_normal_mot_HHH_b2_02633_000000119_0001_1_18_H_._HHH_b2_00877_0001_0001000048_0000001_0_af2pred_0001_1_af2pred_swapped (protein)
chain: SSSSSSDLEELREELREAQEKGDEEEARKLVKELALLAIELGDHETFLEALEILEELSSSSSSSS
B14: il2ra_site1_3nfp_normal_mot_cc4219192d8ccd35c40e7b68f9a57604_0001_af2_000000124_0001_16_32_H_._HHH_b2_07250_0001_0001200014_0000001_0_af2pred_0001_af2pred_swapp … (protein)
chain: SSSSSALEWVEELAKKAFENNDKHELRALYKFLRESLEKNGDPEAEEVLKEVEELLRELQSSSSS
B15: il2ra_site1_3nfp_sap_19_mot_HHH_b1_06045_af2_000000189_0001_3_17_H_._HHH_b2_05942_af2_0001_0000100013_0000001_0_0001_af2pred_0001_af2pred_swapped (protein)
chain: DKIEKRLIEEALKLNSLRQLKKILEQLEKRLGDPEEAKELLRQLIEELLGDPEEAKEIVEEIERR
B16: il2ra_site1_3nfp_sap_14_mot_HHH_b1_01683_000000180_0001_19_35_H_._HHH_b2_07870_af2_0001_0000200011_0000001_0_0001 (protein)
chain: DWVHEAARLLDELARKLPPELVQLLYEVMHLVARGNPEEAEKVAEEILELLGDPELKELLELIRK
B17: il2ra_site2_2erj_sap_16_mot_HHH_b1_03572_af2_000000164_0001_41_56_H_._HHH_b1_07106_0001_0000700021_0000001_0_0001_af2pred_0001_1_af2pred_swapped (protein)
chain: SSSSDVEEEIEELIEEAKRLLEEGDPERAREVLQEASQLAFEARDEELLMELLRLLDELFSSSSS
B18: il2ra_site1_1z92_sap_16_mot_HHH_b2_02639_000000145_0001_40_57_H_._ems_3hC_505_0001_af2_0001_0000300022_0000001_0_0001_af2pred_0001_af2pred_swapped (protein)
chain: SSSSDSSRFALEVVLKLVRELGLDLEQIRALLEVAREADEKGLSEEEIEELLREVAEELSSSSSS

This assay has as its target il2ra, P01589. Briefly: yeast display titration.
For B1, the “apparent Kd” value is “inactive: no binding seen”.

On to B2, for which the “apparent Kd” value is “inactive: no binding seen”.

In the case of B3, the “apparent Kd” value is “inactive: no binding seen”.

For the molecule B4, the “apparent Kd” value was “inactive: no binding seen”.

As for B5, the “apparent Kd” value is “inactive: no binding seen”.

In the case of B6, the “apparent Kd” value was “inactive: no binding seen”.

Consider B7, for which the “apparent Kd” value was “inactive: no binding seen”.

In the case of B8, the “apparent Kd” value is “inactive: no binding seen”.

As to B9, the “apparent Kd” value was “inactive: no binding seen”.

On to B10, for which the “apparent Kd” value is “inactive: no binding seen”.

As to B11, the “apparent Kd” value is “inactive: no binding seen”.

On to B12, for which the “apparent Kd” value was “inactive: no binding seen”.

For the molecule B13, the “apparent Kd” value is “inactive: no binding seen”.

In the case of B14, the “apparent Kd” value was “inactive: no binding seen”.

Consider B15, for which the “apparent Kd” value is “inactive: no binding seen”.

Turning to B16, the “apparent Kd” value is “inactive: no binding seen”.

As for B17, the “apparent Kd” value is “inactive: no binding seen”.

Regarding B18, the “apparent Kd” value was “inactive: no binding seen”.
